Assay results published in paper PMC7819943, “Rice protein-binding microarrays: a tool to detect cis-acting elements near promoter regions in rice”.
The list shows a part of the results.

Chains of the proteins cited; added tags and fusions are not shown.
UniProt Q0JBA9, entry or part of it: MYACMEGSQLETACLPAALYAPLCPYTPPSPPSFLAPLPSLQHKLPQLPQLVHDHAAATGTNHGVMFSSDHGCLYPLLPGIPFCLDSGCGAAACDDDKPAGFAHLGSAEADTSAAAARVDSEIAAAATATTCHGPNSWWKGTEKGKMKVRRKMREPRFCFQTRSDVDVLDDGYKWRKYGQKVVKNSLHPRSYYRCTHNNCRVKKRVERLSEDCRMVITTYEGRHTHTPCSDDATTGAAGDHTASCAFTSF

These sequences were tested against OsWRKY34 (Oryza sativa, UniProt Q0JBA9 1-250) (assay: protein-binding microarray (RPBM); PBS, 2% BSA, 51.3 ng/ul salmon testes DNA, 50 uM zinc acetate, 200 nM TF, 25 C, 1 h; high values mean tight binding). Conditions: protein: recombinant; tags: N-terminal polyhistidine and DsRed monomer fusion (pET32a); label: CyDye5-dUTP incorporated in the synthesized complementary strand; 3' TTTTT single-stranded linker to array surface; dsDNA, one strand shown.
How it was run: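 Binding signal here means per-feature fluorescence intensity in arbitrary units. The values were read on an Axon 4000B scanner after a custom Agilent array, double-stranded by primer extension with Cy5-dUTP, was incubated with 200 nM protein at 25 °C for 1 h in PBS with 2% BSA, salmon testes DNA and 50 µM zinc acetate, then washed. The proteins were transcription factors with an N-terminal polyhistidine tag and DsRed, expressed in E. coli BL21-CodonPlus and purified on Ni–NTA.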

Sequence	binding signal
CAAGCTATTTCTTGCATCATATAACATATTTTCAGCCATTCGGAGTCACCTAGTGCAG	8360 fluorescence intensity (a.u.)
ATTTACTTGATTTCTCATATATCATTGGGTTTGTTTCTATCGGAGTCACCTAGTGCAG	9590 fluorescence intensity (a.u.)
AACGTGAGGTTAGCTGAAATTTGCTCTTTTTTTTTTTTTTCGGAGTCACCTAGTGCAG	9740 fluorescence intensity (a.u.)
ATTTAGTACTGATTTTTTTTCTCATCAATACAATCACTACCGGAGTCACCTAGTGCAG	8280 fluorescence intensity (a.u.)
CGAGGTTTCTTATTTTATCTTATCTGTGGAAATAGTTTTCCGGAGTCACCTAGTGCAG	8460 fluorescence intensity (a.u.)
CGAGATTATTTATTTTTGTACTACATTTGCGATTATTATTCGGAGTCACCTAGTGCAG	8970 fluorescence intensity (a.u.)
AGTTTTTTCCTTTTTCCTGTCCCAATGTTGCGCGTTCGAACGGAGTCACCTAGTGCAG	8730 fluorescence intensity (a.u.)
TGTTGTTTCGTGTGTGGGCTGTGGCTGCTGATGGCTGGATCGGAGTCACCTAGTGCAG	10500 fluorescence intensity (a.u.)
GCACCATCTCCAGTTCCAAGTTCCAATTTTACAACTCTCCCGGAGTCACCTAGTGCAG	9720 fluorescence intensity (a.u.)
AACAATGCCAAATCCACCGGTCACAGGATGCCACTGCCTCCGGAGTCACCTAGTGCAG	8760 fluorescence intensity (a.u.)
CTACCCTATGCTATGAGACCGCTCTTATTCCGGGGTTTAACGGAGTCACCTAGTGCAG	9760 fluorescence intensity (a.u.)
TCCTGTGCGCCTCCCTCGAGCGTGTGACTGTGTTTGTGACCGGAGTCACCTAGTGCAG	8710 fluorescence intensity (a.u.)
CCTTTCCATTTCTGCAGAACTATCCTAGTGTCATAGTCTCCGGAGTCACCTAGTGCAG	13300 fluorescence intensity (a.u.)
GGTGTGGGTCGACGACTTGTGTTTTCCTAGGCAGCTTGAACGGAGTCACCTAGTGCAG	11900 fluorescence intensity (a.u.)
GGCGTATTTCTTTTTTTTTTTTCAAAGCAACCCGGGAAATCGGAGTCACCTAGTGCAG	10200 fluorescence intensity (a.u.)
GCGCGCGCTCGCTCGCTCGCTCGTCTCGCCGGATCTACAGCGGAGTCACCTAGTGCAG	8700 fluorescence intensity (a.u.)
TCTTCTTCTCTTAACCAATTACAACCATTCTTTTTTATCTCGGAGTCACCTAGTGCAG	8600 fluorescence intensity (a.u.)
ACCATAGAGCTGTTTGTCAGTACTGTTGTTTGCATGTGTACGGAGTCACCTAGTGCAG	8540 fluorescence intensity (a.u.)
AATTTTCCCTTTAGCAACATCACTAAGGGCCTGTTTAGTTCGGAGTCACCTAGTGCAG	8860 fluorescence intensity (a.u.)
TCCCTCTCTGCCGCAATCACCGCGCCTCCTCCGCATCCGCCGGAGTCACCTAGTGCAG	8460 fluorescence intensity (a.u.)
CTTCGCCGTCTGACCCGTCAGCCACCATGCGCCGTCTCCGCGGAGTCACCTAGTGCAG	11700 fluorescence intensity (a.u.)

A second format for part of the listing above:
Sequence | binding signal
AACGTGAGGTTAGCTGAAATTTGCTCTTTTTTTTTTTTTTCGGAGTCACCTAGTGCAG | 9740 fluorescence intensity (a.u.)
ATTTAGTACTGATTTTTTTTCTCATCAATACAATCACTACCGGAGTCACCTAGTGCAG | 8280 fluorescence intensity (a.u.)
CGAGGTTTCTTATTTTATCTTATCTGTGGAAATAGTTTTCCGGAGTCACCTAGTGCAG | 8460 fluorescence intensity (a.u.)
CGAGATTATTTATTTTTGTACTACATTTGCGATTATTATTCGGAGTCACCTAGTGCAG | 8970 fluorescence intensity (a.u.)
GCACCATCTCCAGTTCCAAGTTCCAATTTTACAACTCTCCCGGAGTCACCTAGTGCAG | 9720 fluorescence intensity (a.u.)
CTACCCTATGCTATGAGACCGCTCTTATTCCGGGGTTTAACGGAGTCACCTAGTGCAG | 9760 fluorescence intensity (a.u.)
GGTGTGGGTCGACGACTTGTGTTTTCCTAGGCAGCTTGAACGGAGTCACCTAGTGCAG | 11900 fluorescence intensity (a.u.)
GGCGTATTTCTTTTTTTTTTTTCAAAGCAACCCGGGAAATCGGAGTCACCTAGTGCAG | 10200 fluorescence intensity (a.u.)
GCGCGCGCTCGCTCGCTCGCTCGTCTCGCCGGATCTACAGCGGAGTCACCTAGTGCAG | 8700 fluorescence intensity (a.u.)
TCCCTCTCTGCCGCAATCACCGCGCCTCCTCCGCATCCGCCGGAGTCACCTAGTGCAG | 8460 fluorescence intensity (a.u.)
CTTCGCCGTCTGACCCGTCAGCCACCATGCGCCGTCTCCGCGGAGTCACCTAGTGCAG | 11700 fluorescence intensity (a.u.)

The results go on:

Sequence	binding signal
TCGTCGATGTCACCGCCACCACCGTCGTCATCGCTGCCTTCGGAGTCACCTAGTGCAG	8080 fluorescence intensity (a.u.)
TGCATCAATGGTGGCTTGGCTTTCATGTCGCTCCTTGTCGCGGAGTCACCTAGTGCAG	9070 fluorescence intensity (a.u.)
TCTGATATGACACGCTAAAACTTTTTGTCTCGCGAGCTAACGGAGTCACCTAGTGCAG	8320 fluorescence intensity (a.u.)
TGTTTTTATCTTTGATTGTACTATTGTCTTGTTCATCTGTCGGAGTCACCTAGTGCAG	13100 fluorescence intensity (a.u.)
TGCCGTGGGATGGGGTTGCGGGAGGAGGAGGGTGCTACTACGGAGTCACCTAGTGCAG	17000 fluorescence intensity (a.u.)
ACAGCACGCCATCCTCGCTCGGCGTCGCATCGCCATCATCCGGAGTCACCTAGTGCAG	9200 fluorescence intensity (a.u.)
GGCTGTGTGCTTTCTTCTTTGGGCTCAGTGGATCGGTAAACGGAGTCACCTAGTGCAG	12500 fluorescence intensity (a.u.)
CTTATTTGGTCTGGATTAATTGTCGATCAAGTCATTATCGCGGAGTCACCTAGTGCAG	8170 fluorescence intensity (a.u.)
AATTTTTGTCTCTATAGGGTTTGGTTTCGGTCCGAGGATTCGGAGTCACCTAGTGCAG	9610 fluorescence intensity (a.u.)
CGATCCGTCCGTCCATCTCCTGCTCCTGCAATGCTAGCTTCGGAGTCACCTAGTGCAG	8840 fluorescence intensity (a.u.)
TCTTCATCCATATACTCGATCGATCCGAACTTTATCATGACGGAGTCACCTAGTGCAG	8280 fluorescence intensity (a.u.)
GATGGTGTGGATTGAGCTCTGTATACGTCCCTTCAAGATTCGGAGTCACCTAGTGCAG	9220 fluorescence intensity (a.u.)
ATGCATGTTAATTAGTCTGTCACTGATCACTTCATCCCATCGGAGTCACCTAGTGCAG	9480 fluorescence intensity (a.u.)
CTATAATATATATAGCGCACCCTTGCATCAGTTAGTCAACCGGAGTCACCTAGTGCAG	8680 fluorescence intensity (a.u.)
TGTCGTCGTCCTCGCCACCGGATTGTCCCGCCGACGTAGCCGGAGTCACCTAGTGCAG	8160 fluorescence intensity (a.u.)
TCATTCTTCTTATGATATTTTTCTCCTTGCACCTTCAATTCGGAGTCACCTAGTGCAG	9180 fluorescence intensity (a.u.)
TGAAGCAAGCACCCACATTTCACCATGACACCACCACCACCGGAGTCACCTAGTGCAG	8480 fluorescence intensity (a.u.)
GACAAATCTCAGTTTTTCATGTGCCTTTATTATGTCTTCTCGGAGTCACCTAGTGCAG	12800 fluorescence intensity (a.u.)
GCTTCTTCAATGCTATCCCGTCGACCGCCGCTCGCCGGCTCGGAGTCACCTAGTGCAG	8560 fluorescence intensity (a.u.)
GTTTCCGGGGTGACATGTGCATATATCACTTTTGGTTCCGCGGAGTCACCTAGTGCAG	9190 fluorescence intensity (a.u.)
GCCCGCTTTTAGTCCGCAGCTTACACTTGTTTCGTCTCATCGGAGTCACCTAGTGCAG	12600 fluorescence intensity (a.u.)
